# From PMC11091118
# Protein sequences, listed by entry. Tags and fused reporters are not part of them.
# UniProt P78527: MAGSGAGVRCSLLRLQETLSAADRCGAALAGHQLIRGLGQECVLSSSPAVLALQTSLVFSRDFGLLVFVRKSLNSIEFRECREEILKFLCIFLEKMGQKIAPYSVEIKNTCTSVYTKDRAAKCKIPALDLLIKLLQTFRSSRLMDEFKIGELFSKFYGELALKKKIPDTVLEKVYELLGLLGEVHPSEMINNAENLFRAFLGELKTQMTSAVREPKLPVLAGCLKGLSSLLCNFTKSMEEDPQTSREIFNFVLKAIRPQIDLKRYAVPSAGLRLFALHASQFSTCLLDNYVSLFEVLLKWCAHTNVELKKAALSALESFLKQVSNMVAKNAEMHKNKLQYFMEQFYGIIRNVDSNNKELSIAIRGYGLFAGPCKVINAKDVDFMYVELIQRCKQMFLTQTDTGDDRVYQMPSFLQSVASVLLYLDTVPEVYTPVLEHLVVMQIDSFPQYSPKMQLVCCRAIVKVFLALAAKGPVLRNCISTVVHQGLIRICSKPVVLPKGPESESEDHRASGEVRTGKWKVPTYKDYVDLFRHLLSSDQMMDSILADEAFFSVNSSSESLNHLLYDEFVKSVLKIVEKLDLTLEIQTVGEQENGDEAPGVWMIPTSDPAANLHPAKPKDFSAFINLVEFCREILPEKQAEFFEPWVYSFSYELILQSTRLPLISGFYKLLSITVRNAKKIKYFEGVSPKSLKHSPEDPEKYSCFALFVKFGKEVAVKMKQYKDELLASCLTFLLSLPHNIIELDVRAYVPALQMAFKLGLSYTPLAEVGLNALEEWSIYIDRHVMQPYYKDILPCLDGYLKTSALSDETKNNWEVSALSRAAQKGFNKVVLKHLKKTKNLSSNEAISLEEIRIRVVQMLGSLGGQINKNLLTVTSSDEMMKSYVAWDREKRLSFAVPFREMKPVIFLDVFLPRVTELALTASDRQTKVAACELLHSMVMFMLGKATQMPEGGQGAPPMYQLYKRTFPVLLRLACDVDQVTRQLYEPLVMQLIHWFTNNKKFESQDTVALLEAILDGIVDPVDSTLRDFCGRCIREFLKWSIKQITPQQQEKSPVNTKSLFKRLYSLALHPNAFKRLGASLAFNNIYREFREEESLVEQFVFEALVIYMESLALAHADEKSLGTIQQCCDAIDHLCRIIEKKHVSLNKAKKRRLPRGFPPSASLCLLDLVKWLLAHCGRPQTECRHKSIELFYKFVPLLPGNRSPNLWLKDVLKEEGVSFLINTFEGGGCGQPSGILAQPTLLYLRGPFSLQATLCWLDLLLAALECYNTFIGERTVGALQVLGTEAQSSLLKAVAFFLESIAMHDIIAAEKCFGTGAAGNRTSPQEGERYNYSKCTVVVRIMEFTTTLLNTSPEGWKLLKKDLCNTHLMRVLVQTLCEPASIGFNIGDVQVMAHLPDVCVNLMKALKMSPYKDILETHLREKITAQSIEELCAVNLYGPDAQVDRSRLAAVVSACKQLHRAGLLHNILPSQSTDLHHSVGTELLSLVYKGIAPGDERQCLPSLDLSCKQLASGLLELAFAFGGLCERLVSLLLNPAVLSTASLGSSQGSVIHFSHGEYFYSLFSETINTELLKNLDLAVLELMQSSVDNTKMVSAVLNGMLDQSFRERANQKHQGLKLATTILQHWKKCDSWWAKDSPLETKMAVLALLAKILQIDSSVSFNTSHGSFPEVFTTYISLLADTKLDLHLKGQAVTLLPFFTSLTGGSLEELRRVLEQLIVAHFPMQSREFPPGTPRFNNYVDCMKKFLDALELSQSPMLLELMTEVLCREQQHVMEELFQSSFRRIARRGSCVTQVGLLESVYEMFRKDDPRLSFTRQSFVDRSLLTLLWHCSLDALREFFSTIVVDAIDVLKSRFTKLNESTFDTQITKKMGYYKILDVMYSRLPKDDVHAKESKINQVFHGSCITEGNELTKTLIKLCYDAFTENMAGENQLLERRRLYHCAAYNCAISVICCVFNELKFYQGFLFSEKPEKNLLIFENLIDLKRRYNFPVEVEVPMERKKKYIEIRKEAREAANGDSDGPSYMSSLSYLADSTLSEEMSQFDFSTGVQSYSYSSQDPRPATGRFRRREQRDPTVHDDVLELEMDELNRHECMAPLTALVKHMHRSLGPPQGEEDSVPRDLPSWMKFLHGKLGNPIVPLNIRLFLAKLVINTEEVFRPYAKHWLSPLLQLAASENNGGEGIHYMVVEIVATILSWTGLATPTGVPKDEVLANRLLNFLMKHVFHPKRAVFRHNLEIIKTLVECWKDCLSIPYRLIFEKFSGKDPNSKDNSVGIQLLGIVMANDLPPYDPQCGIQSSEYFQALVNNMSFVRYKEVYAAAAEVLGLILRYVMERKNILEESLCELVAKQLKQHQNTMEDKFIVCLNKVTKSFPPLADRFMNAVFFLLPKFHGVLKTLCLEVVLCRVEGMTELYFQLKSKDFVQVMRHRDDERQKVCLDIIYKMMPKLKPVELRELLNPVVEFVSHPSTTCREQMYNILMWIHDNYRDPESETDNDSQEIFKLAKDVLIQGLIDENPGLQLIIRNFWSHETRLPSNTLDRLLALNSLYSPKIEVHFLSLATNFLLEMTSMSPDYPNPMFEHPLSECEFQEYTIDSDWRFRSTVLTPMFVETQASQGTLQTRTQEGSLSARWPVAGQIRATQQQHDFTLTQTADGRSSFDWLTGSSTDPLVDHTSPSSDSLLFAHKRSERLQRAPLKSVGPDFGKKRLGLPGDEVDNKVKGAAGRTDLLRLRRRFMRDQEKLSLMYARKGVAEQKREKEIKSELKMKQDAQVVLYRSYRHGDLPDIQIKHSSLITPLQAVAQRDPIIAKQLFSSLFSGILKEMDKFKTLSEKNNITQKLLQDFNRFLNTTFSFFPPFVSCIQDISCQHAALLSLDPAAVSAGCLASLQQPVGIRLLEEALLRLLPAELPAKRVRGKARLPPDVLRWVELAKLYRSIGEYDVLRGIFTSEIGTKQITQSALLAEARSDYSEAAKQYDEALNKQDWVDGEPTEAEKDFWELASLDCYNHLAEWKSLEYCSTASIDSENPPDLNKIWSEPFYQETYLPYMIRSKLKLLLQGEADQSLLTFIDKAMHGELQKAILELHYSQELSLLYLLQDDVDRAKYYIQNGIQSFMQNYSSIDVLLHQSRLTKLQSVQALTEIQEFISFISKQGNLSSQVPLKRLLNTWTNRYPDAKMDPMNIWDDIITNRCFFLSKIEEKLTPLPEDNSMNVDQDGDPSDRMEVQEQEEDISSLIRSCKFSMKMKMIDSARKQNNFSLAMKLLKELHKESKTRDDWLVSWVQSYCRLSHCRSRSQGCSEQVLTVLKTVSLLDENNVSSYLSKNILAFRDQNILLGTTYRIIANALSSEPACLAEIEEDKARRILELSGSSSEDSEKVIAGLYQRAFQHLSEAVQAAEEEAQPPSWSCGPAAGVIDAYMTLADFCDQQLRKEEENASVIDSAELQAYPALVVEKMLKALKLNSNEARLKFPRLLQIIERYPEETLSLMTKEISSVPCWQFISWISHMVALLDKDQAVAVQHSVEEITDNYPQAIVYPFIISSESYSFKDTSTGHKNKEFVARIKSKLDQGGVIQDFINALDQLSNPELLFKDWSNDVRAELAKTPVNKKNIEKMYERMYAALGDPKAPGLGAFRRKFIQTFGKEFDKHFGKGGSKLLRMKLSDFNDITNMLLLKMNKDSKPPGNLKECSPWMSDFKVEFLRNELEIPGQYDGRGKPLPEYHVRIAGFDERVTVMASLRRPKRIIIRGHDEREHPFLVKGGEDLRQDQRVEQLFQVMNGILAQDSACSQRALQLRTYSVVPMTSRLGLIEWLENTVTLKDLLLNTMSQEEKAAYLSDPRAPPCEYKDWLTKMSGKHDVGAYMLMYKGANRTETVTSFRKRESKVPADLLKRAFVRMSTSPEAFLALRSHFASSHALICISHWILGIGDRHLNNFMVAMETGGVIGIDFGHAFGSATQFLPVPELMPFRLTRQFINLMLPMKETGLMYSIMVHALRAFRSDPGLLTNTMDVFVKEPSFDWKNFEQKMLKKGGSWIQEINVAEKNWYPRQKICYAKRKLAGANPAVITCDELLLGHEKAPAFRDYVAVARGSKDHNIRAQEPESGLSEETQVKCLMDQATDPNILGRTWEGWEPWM
# UniProt Q92830: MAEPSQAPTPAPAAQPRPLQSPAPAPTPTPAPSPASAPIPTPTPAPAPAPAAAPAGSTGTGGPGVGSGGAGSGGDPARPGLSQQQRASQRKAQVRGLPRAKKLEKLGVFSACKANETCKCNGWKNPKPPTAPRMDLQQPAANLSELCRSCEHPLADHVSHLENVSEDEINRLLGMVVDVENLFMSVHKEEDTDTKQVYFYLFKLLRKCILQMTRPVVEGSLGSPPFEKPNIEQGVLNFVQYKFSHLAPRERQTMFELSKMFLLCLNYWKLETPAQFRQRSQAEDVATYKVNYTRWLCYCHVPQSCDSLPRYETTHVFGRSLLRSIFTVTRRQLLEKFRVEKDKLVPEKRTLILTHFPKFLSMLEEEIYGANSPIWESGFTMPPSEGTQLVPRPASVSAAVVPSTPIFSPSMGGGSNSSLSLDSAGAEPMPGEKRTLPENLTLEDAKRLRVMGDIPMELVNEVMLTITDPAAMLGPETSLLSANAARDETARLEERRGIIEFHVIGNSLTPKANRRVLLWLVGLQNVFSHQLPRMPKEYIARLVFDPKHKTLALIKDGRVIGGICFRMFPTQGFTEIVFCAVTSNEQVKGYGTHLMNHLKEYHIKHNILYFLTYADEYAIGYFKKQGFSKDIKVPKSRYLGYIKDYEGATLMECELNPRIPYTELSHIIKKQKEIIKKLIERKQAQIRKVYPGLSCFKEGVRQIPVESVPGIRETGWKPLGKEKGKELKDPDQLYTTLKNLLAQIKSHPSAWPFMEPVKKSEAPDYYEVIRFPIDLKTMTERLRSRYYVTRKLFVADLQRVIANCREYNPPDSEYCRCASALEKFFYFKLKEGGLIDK
# UniProt O15379: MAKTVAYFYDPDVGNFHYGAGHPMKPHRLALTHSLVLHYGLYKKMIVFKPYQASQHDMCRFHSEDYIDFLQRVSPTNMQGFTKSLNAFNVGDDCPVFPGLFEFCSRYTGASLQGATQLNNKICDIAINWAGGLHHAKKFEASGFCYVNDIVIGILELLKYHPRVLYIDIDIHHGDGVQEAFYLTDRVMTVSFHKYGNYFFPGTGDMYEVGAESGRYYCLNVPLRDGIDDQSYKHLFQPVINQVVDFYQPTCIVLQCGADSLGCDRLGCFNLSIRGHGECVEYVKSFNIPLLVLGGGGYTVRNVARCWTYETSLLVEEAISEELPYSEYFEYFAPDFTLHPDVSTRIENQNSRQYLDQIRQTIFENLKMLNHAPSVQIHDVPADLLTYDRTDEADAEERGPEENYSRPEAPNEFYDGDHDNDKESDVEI
# Results are given in words; binding and its absence hold for the method and conditions named. In cells and extracts the contact can be indirect. Some binding calls cover weakened binding; strength is not graded here.
# Target: DNA-PK catalytic subunit (DNA-PKcs), endogenous (human (endogenous in HeLa)) (UniProt P78527)
# Test: co-IP; HeLa cells treated with IR or not; co-IP of endogenous proteins with indicated antibodies; NETN buffer
row,Substance,binding
1,"General control nondepressible 5 (GCN5), endogenous (from UniProt Q92830 1-837) (enzyme)",binds
2,"HDAC3, endogenous (from UniProt O15379 1-428) (enzyme)",binds
